Earlier results in patent publication US6894038B2, “Use of biogenic estriol diester prodrugs for the treatment of autoimmune diseases” (Schering Aktiengesellschaft, priority 2002, dated 2005).
At least one compound was matched to its structure with a doubt left.

Test system: CD4+ lymphocytes of MS patients
Details: concentrations at a similar level as in pregnancy; Correale et al. 1998; cited from earlier work

Structure (SMILES)	secretion of anti-inflammatory cytokine IL-10
C[C@]12CC[C@@H]3c4ccc(O)cc4CC[C@H]3[C@@H]1CC[C@@H]2O [estradiol]	stimulated
C[C@]12CC[C@@H]3c4ccc(O)cc4CC[C@H]3[C@@H]1CCC2=O [estrone]	stimulated
